About 7,500 (2.1%) of roughly 360,000 compounds were called active. The shares of active, inactive and inconclusive entries below differ from those in the screen. The call rests on the fitted dose curve; in most records, active means well fitted inhibition curve with a large enough effect; inconclusive means small, poorly fitted or top-dose-only effect, or effect the other way; inactive means flat fitted curve, though single readings scatter. Where the call is inconclusive, the potency comes from a doubtful curve fit.
Experiment: Nrf2 qHTS screen for inhibitors; further: nearly all actives have a fitted effect of over 60% in size
Details: A549 ARE-Fluc reporter, luciferase luminescence, 18-24 h; activity change, negative = inhibition: at 46 µM (top of the series)
How it was run: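 Quantitative HTS in A549 cells stably bearing an antioxidant response element-firefly luciferase construct. Inhibition of Nrf2-driven transcription was scored by luminescence after 18-24 h of compound exposure at 37 °C.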
On the % scale 0 is the no-effect control and ±100 the full control effect; potency means the concentration at half of the fitted maximal effect.

SMILES | Potency | activity change, negative = inhibition
Cc1csc(NC(=O)c2cc3c(C)nn(Cc4ccccc4Cl)c3s2)n1 | inconclusive: 29.1 µM [falling, single point] | –
O=C(NCCCn1ccnc1)c1ccc(-c2ccccc2)cc1 | inconclusive: 29.1 µM [falling, single point] | –
CC1CCN(Cc2nnc(-c3cccc(Br)c3)o2)CC1 | inconclusive: 29.1 µM [activator, single point] | –
Cn1c(SCc2ccccc2F)nc2ccccc2c1=O | inconclusive: 16.4 µM [falling, partial curve, poor fit] | –
COc1ccc(C(=O)Nc2ccc(S(=O)(=O)N3CCCCC3)cc2)cc1 | inconclusive: 29.1 µM [falling, single point] | –
COc1ccc(C2OC(=O)CC2C(=O)NC2CCCC(C)C2C)cc1OC (stereo not given) | inconclusive: 20.6 µM [falling, partial curve, poor fit] | –
CCCNC(=O)Nc1ccc2c(c1)N(C)C(=O)c1ccccc1S2 | – | inactive: -23.8%
COc1ccc(/C(C)=N/Nc2ccc(C(=O)O)cc2)c(OC)c1 | inconclusive: 8.2 µM [activator, partial curve] | –
COc1ccccc1C(CC(=O)Nc1ccc(Cl)cc1)c1ccc(OC(C)C)cc1 (stereo not given) | inconclusive: 13 µM [falling, partial curve, poor fit] | –
O=C(Nc1ccc2c(c1)oc1ccc(S(=O)(=O)N3CCCC3)cc12)C1CC1 | inconclusive: 8.2 µM [falling, partial curve] | –
CC(=O)N1CCN(C(=S)Nc2ccc(SC(F)F)cc2)CC1 | – | inactive: -1.77%
COCc1ccc(C(=O)NC2CCCc3c2cnn3-c2cc(C)cc(C)c2)s1 (stereo not given) | inconclusive: 25.9 µM [falling, single point] | –
CC(=O)c1c(C)[nH]c(C(=O)Nc2cccc(C#N)c2)c1C | inconclusive: 29.1 µM [falling, partial curve, poor fit] | –
COc1ccc(Br)cc1C1NC(=O)c2c(sc3c2CCN(C)C3)N1 (stereo not given) | – | inactive: 7.44%
Cc1cc(Nc2cnc3ccccc3n2)n(-c2ccccc2)n1 | inconclusive: 25.9 µM [falling, single point] | –
c1ccc(Cc2nc(-c3ccccn3)no2)cc1 | inconclusive: 1.16 µM [activator, full curve] | –
Cc1ccc2c(c1)c1c(n2CCc2ccc(C)nc2)CCN(C)C1 | inconclusive: 20.6 µM [falling, partial curve] | –
O=C(Nc1nccs1)c1cc2c(s1)CCCCC2 | inconclusive: 0.146 µM [activator, full curve, poor fit] | –
CCOC(=O)N1CCN(S(=O)(=O)c2ccc3c(c2)SCC(=O)N3)CC1 | inconclusive: 11.6 µM [falling, partial curve, poor fit] | –
C=CCN1CN(S(=O)(=O)c2ccc(OC)cc2)c2nc3ccccc3nc21 | inconclusive: 29.1 µM [falling, single point] | –
COc1ccc(-c2cc(CNS(=O)(=O)c3ccc(F)cc3)on2)cc1 | inconclusive: 18.4 µM [falling, single point] | –
CCOc1ccccc1CNC(=O)c1[nH]c2ccccc2c1Sc1ccccc1 | inconclusive: 11.6 µM [falling, partial curve, poor fit] | –

Among those listed so far, these contain an NH in an aromatic ring:
SMILES | Potency | activity change, negative = inhibition
CC(=O)c1c(C)[nH]c(C(=O)Nc2cccc(C#N)c2)c1C | inconclusive: 29.1 µM [falling, partial curve, poor fit] | –
CCOc1ccccc1CNC(=O)c1[nH]c2ccccc2c1Sc1ccccc1 | inconclusive: 11.6 µM [falling, partial curve, poor fit] | –

Sorted by heavy-atom count (smallest number first): 3 of the compounds above
SMILES | Potency | activity change, negative = inhibition
COc1ccc(/C(C)=N/Nc2ccc(C(=O)O)cc2)c(OC)c1 | inconclusive: 8.2 µM [activator, partial curve] | –
COc1ccc(C(=O)Nc2ccc(S(=O)(=O)N3CCCCC3)cc2)cc1 | inconclusive: 29.1 µM [falling, single point] | –
O=C(Nc1ccc2c(c1)oc1ccc(S(=O)(=O)N3CCCC3)cc12)C1CC1 | inconclusive: 8.2 µM [falling, partial curve] | –

Following part:

SMILES | Potency | activity change, negative = inhibition
COc1cccc(CNC(=O)[C@@H](C)N2C(=O)N3CCc4c([nH]c5ccc(OC)cc45)C3(C)C2=O)c1 (stereo not given in full) | – | inactive: -8.78%
C/C(=N/NC(=O)CN1CCN(S(=O)(=O)c2ccc(C)cc2)CC1)c1cccc(O)c1 | inconclusive: 0.0046 µM [falling, full curve, poor fit] | –
O=C1NC(NS(=O)(=O)c2ccc(Cl)cc2)(C(F)(F)F)C(=O)N1CCc1ccccc1 (stereo not given) | inconclusive: 18.4 µM [falling, partial curve, poor fit] | –
COc1ccc([N+](=O)[O-])c(OC)c1C(=O)NC(=O)Nc1c(C)cccc1C | – | inactive: -7.72%
O=S(=O)(c1ccc(-c2cc(C(F)(F)F)on2)s1)N1CCN(c2cccc(Cl)c2)CC1 | inconclusive: 18.4 µM [falling, single point] | –
Nc1ncnc2c1ncn2C1CCCC1 | – | inactive: 5.97%
CC1=NN(c2ccccc2)C(=O)C1N=Nc1ccccc1 (stereo not given) | inconclusive: 2.59 µM [activator, full curve] | –
Cc1cc(C)n(CC(=O)O)c(=O)c1[N+](=O)[O-] | – | inactive: 5.92%
O=C(COc1cccc2cccnc12)N/N=C/c1ccccc1O | inconclusive: 25.9 µM [falling, single point] | –
CCn1nc(C)c(CN2CCc3c([nH]c4ccccc34)C2c2ccc(F)c(OC)c2)c1C (stereo not given) | inconclusive: 4.11 µM [activator, full curve] | –
COc1cccc(/C=C2\N=C3CCCCCN3C2=O)c1 | inconclusive: 6.51 µM [activator, single point] | –
N#C[C@@H]1N(Cc2ccccc2)C(=O)[C@H]2CC3C=CC21O3 (stereo not given in full) | inconclusive: 29.1 µM [activator, single point] | –
COc1ccccc1-c1noc(CCC(=O)N2CCN(c3cc(C)ccc3C)CC2)n1 | active: 4.61 µM | –
Clc1ccc(OCCn2ccnc2)c(Cl)c1 | inconclusive: 29.1 µM [activator, single point] | –
COc1cc(OC)c2c(C)cc(=O)oc2c1C(CCN1CCN(c2ccccc2)CC1)c1ccc2c(c1)OCO2 (stereo not given) | – | inactive: -20.6%
CC(C)(C)c1ccc(Oc2ccc(NC(=O)c3cccs3)cn2)cc1 | active: 16.4 µM | –
CC(C)OC(=O)C1Cc2ccccc2CN1S(=O)(=O)c1cccs1 (stereo not given) | inconclusive: 23.1 µM [falling, partial curve, poor fit] | –
Cc1cccc(N2CCN(c3ccc(N4C(=O)CCCC4=O)cc3[N+](=O)[O-])CC2)c1C | inconclusive: 29.1 µM [falling, single point] | –
CCOc1cc(N2CCOCC2)c(OCC)cc1NC(=O)COC(=O)CCc1c[nH]c2ccccc12 | inconclusive: 4.61 µM [activator, full curve, poor fit] | –
O=C(NCCc1ccc(F)cc1)NC12CC3CC(CC(C3)C1)C2 | inconclusive: 25.9 µM [activator, single point] | –
CC(Sc1nnc(Nc2ccccc2)s1)C(=O)Nc1nc(-c2ccccc2)cs1 (stereo not given) | inconclusive: 16.4 µM [activator, partial curve] | –
Cc1ccc2[nH]c3c(N4CCc5ccccc5C4)ncnc3c2c1 | active: 7.31 µM | –

SMILES | Potency | activity change, negative = inhibition
N#CCc1ccc(OC(=O)Nc2ccccc2)cc1 | inconclusive: 14.6 µM [activator, partial curve, poor fit] | –
O=C(CCNC(=O)c1ccccc1)Nc1ccc(Cl)c(S(=O)(=O)N2CCCCC2)c1 | inconclusive: 23.1 µM [falling, single point] | –
COc1ccc(OC)c(CCNC(=O)c2ccc3[nH]c(C)c(C)c3c2)c1 | inconclusive: 10.3 µM [activator, partial curve] | –
C(=N\NC1=Nc2cccc3cccc1c23)/c1cccnc1 | inconclusive: 4.11 µM [activator, full curve] | –
Cc1ccc(S(=O)(=O)N2[C@@H](c3ccc(Cl)cc3)C(C(=O)O)=CC[C@H]2c2cccc(C)c2)cc1 | inconclusive: 20.6 µM [falling, partial curve] | –
Cc1ccc(NC(=O)c2ccc(OCC3CCCO3)cc2)nc1 (stereo not given) | inconclusive: 1.46 µM [activator, full curve, poor fit] | –
O=C(c1ccc2c(=O)n(Cc3ccco3)c(=S)[nH]c2c1)N1CCN(c2ccccc2)CC1 | inconclusive: 18.4 µM [falling, single point] | –
COc1ccc(OC)c(/C=C/C(=O)OCC(=O)N2C(C)CCCC2C)c1 (stereo not given) | – | inactive: 0.954%
COc1cccc(CN2CCN(Cc3nc(C(C)C)cs3)CC2CCO)c1 (stereo not given) | inconclusive: 16.4 µM [falling, single point] | –
C=CCn1c(=S)[nH]c2sccc2c1=O | inconclusive: 1.46 µM [falling, partial curve, poor fit] | –
Cc1ccc(NC(=O)Cn2c(=O)c(C(F)(F)F)nc3ccccc32)c(C)c1 | inconclusive: 29.1 µM [activator, single point] | –
CS(=O)(=O)N1CCc2cc(S(=O)(=O)Nc3ccc4oc5c(c4c3)CCCC5)ccc21 | inconclusive: 29.1 µM [falling, single point] | –
O=C(Nc1ccc(Cl)cc1)c1ccc2c(c1)OCO2 | inconclusive: 1.16 µM [activator, full curve] | –
Cc1cccc(NC(=O)CN2CCc3cc4c(cc3C2C)OCCCO4)c1 (stereo not given) | active: 23.1 µM | –
CCCCN(C(=O)CSc1nn(-c2ccc(F)cc2)c(=S)s1)c1c(N)n(CCCC)c(=O)[nH]c1=O | inconclusive: 16.4 µM [falling, partial curve, poor fit] | –
CCOC(=O)c1ccc(NC(=O)Cn2nnc(-c3ccccc3)n2)cc1 | inconclusive: 14.6 µM [falling, partial curve, poor fit] | –
CN(C)c1nc(N)nc(Cn2nnc(-c3ccc(C(F)(F)F)cc3)n2)n1 | – | inactive: 0.318%
COc1ccc2c(c1)c(C(=O)N/N=C/c1ccc(Cl)cc1)c(C)n2C | inconclusive: 25.9 µM [activator, partial curve] | –
COc1ccc(CCNC(=O)C2CC(c3cccc([N+](=O)[O-])c3)=NO2)cc1 (stereo not given) | inconclusive: 18.4 µM [activator, single point] | –
Cc1nc(NC(=O)CN2CCN(c3ccccc3F)CC2)sc1C(=O)N(C)C | inconclusive: 29.1 µM [falling, single point] | –
COc1ccc(-c2noc(-c3ccc4c(c3)OCO4)n2)cc1 | inconclusive: 2.31 µM [activator, full curve] | –
